No constants are given. Whether binding was seen depends on the method and setting. Binding can be weak; no strength is given. Tags and fused reporters may be left off the sequences shown.
Target: MBP-AP3 (appendage domain of rat AP-3 delta) (rat)
Assay: pull-down

Binder | binding
HIS-6 VPS41^WT (protein, UniProt P49754-1 1-854) MAEAEEQETGSLEESTDESEEEESEEEPKLKYERLSNGVTEILQKDAASCMTVHDKFLALGTHYGKVYLLDVQGNITQKFDVSPVKINQISLDESGEHMGVCSEDGKVQVFGLYSGEEFHETFDCPIKIIAVHPHFVRSSCKQFVTGGKKLLLFERSWMNRWKSAVLHEGEGNIRSVKWRGHLIAWANNMGVKIFDIISKQRITNVPRDDISLRPDMYPCSLCWKDNVTLIIGWGTSVKVCSVKERHASEMRDLPSRYVEIVSQFETEFYISGLAPLCDQLVVLSYVKEISEKTEREYCARPRLDIIQPLSETCEEISSDALTVRGFQENECRDYHLEYSEGESLFYIVSPRDVVVAKERDQDDHIDWLLEKKKYEEALMAAEISQKNIKRHKILDIGLAYINHLVERGDYDIAARKCQKILGKNAALWEYEVYKFKEIGQLKAISPYLPRGDPVLKPLIYEMILHEFLESDYEGFATLIREWPGDLYNNSVIVQAVRDHLKKDSQNKTLLKTLAELYTYDKNYGNALEIYLTLRHKDVFQLIHKHNLFSSIKDKIVLLMDFDSEKAVDMLLDNEDKISIKKVVEELEDRPELQHVYLHKLFKRDHHKGQRYHEKQISLYAEYDRPNLLPFLRDSTHCPLEKALEICQQRNFVEETVYLLSRMGNSRSALKMIMEELHDVDKAIEFAKEQDDGELWEDLILYSIDKPPFITGLLNNIGTHVDPILLIHRIKEGMEIPNLRDSLVKILQDYNLQILLREGCKKILVADSLSLLKKMHRTQMKGVLVDEENICESCLSPILPSDAAKPFSVVVFHCRHMFHKECLPMPSMNSAAQFCNICSAKNRGPGSAILEMKK | binds
HIS-6 VPS41^S285P (protein, UniProt P49754-1 1-854) MAEAEEQETGSLEESTDESEEEESEEEPKLKYERLSNGVTEILQKDAASCMTVHDKFLALGTHYGKVYLLDVQGNITQKFDVSPVKINQISLDESGEHMGVCSEDGKVQVFGLYSGEEFHETFDCPIKIIAVHPHFVRSSCKQFVTGGKKLLLFERSWMNRWKSAVLHEGEGNIRSVKWRGHLIAWANNMGVKIFDIISKQRITNVPRDDISLRPDMYPCSLCWKDNVTLIIGWGTSVKVCSVKERHASEMRDLPSRYVEIVSQFETEFYISGLAPLCDQLVVLPYVKEISEKTEREYCARPRLDIIQPLSETCEEISSDALTVRGFQENECRDYHLEYSEGESLFYIVSPRDVVVAKERDQDDHIDWLLEKKKYEEALMAAEISQKNIKRHKILDIGLAYINHLVERGDYDIAARKCQKILGKNAALWEYEVYKFKEIGQLKAISPYLPRGDPVLKPLIYEMILHEFLESDYEGFATLIREWPGDLYNNSVIVQAVRDHLKKDSQNKTLLKTLAELYTYDKNYGNALEIYLTLRHKDVFQLIHKHNLFSSIKDKIVLLMDFDSEKAVDMLLDNEDKISIKKVVEELEDRPELQHVYLHKLFKRDHHKGQRYHEKQISLYAEYDRPNLLPFLRDSTHCPLEKALEICQQRNFVEETVYLLSRMGNSRSALKMIMEELHDVDKAIEFAKEQDDGELWEDLILYSIDKPPFITGLLNNIGTHVDPILLIHRIKEGMEIPNLRDSLVKILQDYNLQILLREGCKKILVADSLSLLKKMHRTQMKGVLVDEENICESCLSPILPSDAAKPFSVVVFHCRHMFHKECLPMPSMNSAAQFCNICSAKNRGPGSAILEMKK | binds

Source: publication doi:10.1101/2019.12.18.867333
